These are yes or no findings as the source states them, for the method shown. Binding seen in cells or lysates may run through a third protein. Some results given as binding are weak or reduced against the parent protein; the word gives no strength.
Target: SUZ12 (human (endogenous in human T cells)) (UniProt Q15022)
Assay: co-IP; endogenous proteins in lysates of human T cells (hypoxia); IP buffer 20 mM Tris pH 7.5, 100 mM NaCl, 0.5% NP-40, 0.5 mM EDTA; precipitated with HIF1α antibody, SUZ12 antibody or normal rabbit IgG, protein A-agarose; immunoblot

By UniProt entry, the sequences of proteins in these tests, tags left out.
UniProt Q15022: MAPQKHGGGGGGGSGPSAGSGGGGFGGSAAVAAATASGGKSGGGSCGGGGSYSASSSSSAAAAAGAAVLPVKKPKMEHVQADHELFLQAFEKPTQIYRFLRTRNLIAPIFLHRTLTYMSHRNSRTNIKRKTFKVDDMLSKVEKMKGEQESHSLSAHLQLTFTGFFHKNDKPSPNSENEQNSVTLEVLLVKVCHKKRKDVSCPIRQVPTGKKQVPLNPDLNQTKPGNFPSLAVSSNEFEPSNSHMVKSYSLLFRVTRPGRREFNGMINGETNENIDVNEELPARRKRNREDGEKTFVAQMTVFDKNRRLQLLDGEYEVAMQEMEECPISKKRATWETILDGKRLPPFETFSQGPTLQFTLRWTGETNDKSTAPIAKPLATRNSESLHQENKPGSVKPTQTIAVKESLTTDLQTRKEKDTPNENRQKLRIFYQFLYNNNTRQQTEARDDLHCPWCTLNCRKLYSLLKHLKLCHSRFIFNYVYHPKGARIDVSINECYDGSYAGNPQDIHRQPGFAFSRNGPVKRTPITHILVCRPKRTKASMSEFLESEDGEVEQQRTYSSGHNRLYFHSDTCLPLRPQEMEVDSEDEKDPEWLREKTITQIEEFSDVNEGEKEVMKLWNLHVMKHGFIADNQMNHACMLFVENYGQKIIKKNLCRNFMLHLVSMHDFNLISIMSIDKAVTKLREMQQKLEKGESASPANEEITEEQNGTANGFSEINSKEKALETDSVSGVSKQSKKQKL
UniProt Q13547: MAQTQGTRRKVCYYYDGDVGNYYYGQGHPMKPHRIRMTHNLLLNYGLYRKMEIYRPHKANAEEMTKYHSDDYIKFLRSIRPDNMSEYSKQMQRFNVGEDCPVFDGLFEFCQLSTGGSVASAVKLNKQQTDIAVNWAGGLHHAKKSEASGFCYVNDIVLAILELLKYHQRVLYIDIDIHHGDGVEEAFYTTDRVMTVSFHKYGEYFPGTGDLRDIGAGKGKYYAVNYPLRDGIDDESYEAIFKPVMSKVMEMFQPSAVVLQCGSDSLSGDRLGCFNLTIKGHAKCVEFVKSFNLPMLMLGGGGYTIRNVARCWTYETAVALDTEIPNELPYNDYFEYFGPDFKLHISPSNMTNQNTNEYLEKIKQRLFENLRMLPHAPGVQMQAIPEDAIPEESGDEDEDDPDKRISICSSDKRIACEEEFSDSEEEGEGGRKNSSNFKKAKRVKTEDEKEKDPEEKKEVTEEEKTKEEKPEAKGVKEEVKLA

**Q.** How did the binding turn out when HDAC1 (from UniProt Q13547 1-482) was run?
**A.** binds
